Data as given in the supplement of paper PMC10849652.
The list shows a part of the results.

Amino acid sequences for entries named in this document (tags omitted). A change or cut given only in a name is not applied to a line headed by its entry.
UniProt Q9H078: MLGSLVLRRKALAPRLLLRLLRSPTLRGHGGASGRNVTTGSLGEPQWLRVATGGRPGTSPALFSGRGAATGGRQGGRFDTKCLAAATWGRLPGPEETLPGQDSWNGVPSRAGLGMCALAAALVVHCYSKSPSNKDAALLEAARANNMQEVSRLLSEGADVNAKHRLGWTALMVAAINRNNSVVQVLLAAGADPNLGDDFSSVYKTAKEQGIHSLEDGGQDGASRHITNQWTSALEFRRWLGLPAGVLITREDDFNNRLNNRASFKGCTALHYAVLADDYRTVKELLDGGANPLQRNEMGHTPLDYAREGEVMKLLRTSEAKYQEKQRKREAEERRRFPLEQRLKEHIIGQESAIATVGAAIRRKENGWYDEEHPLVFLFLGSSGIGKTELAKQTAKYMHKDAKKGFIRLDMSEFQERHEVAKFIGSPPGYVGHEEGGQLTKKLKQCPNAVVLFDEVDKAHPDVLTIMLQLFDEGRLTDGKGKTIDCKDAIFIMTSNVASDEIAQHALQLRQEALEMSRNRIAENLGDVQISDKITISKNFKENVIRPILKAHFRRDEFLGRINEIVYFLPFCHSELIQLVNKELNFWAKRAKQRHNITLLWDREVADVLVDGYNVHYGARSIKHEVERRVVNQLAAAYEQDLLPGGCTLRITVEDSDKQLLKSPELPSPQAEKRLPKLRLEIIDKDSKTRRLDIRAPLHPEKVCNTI
UniProt Q92600, whole entry, looked up: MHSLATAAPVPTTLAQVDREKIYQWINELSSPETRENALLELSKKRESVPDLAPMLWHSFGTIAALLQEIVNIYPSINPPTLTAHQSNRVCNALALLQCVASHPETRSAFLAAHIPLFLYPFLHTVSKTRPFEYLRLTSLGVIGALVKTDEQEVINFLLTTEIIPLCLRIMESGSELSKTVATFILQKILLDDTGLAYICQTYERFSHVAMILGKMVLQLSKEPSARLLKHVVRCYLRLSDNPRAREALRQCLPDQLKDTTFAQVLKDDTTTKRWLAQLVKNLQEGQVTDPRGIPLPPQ
UniProt P0C7P0: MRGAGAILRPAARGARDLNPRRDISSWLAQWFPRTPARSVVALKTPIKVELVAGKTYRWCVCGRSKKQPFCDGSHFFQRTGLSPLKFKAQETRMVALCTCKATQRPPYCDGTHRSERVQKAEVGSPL
UniProt P09496: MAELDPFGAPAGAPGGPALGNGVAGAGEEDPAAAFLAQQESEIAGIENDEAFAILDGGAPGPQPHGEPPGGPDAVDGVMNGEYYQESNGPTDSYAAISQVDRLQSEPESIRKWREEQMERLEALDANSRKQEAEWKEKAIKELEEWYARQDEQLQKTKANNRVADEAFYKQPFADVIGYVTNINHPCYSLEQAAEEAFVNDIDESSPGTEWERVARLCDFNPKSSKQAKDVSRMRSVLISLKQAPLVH
UniProt Q9BQ75: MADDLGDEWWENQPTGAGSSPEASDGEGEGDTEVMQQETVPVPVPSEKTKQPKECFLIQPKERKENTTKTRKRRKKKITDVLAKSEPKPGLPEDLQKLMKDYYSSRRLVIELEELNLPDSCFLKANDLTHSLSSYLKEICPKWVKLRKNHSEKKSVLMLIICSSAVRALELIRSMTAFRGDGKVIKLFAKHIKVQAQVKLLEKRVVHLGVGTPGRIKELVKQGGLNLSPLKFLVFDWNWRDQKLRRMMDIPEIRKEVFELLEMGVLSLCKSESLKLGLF
UniProt Q9UFF9, whole entry, looked up: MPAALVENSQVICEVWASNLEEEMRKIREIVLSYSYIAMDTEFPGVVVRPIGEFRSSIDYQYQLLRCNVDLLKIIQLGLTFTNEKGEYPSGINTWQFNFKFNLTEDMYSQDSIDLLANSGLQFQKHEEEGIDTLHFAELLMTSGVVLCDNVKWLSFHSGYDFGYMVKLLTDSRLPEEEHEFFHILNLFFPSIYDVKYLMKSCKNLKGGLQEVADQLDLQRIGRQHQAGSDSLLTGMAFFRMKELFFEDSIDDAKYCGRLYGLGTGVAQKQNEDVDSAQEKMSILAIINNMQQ
UniProt Q9Y2R0: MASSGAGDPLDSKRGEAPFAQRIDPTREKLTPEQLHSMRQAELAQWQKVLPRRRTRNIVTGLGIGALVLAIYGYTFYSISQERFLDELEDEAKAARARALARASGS
UniProt P09543: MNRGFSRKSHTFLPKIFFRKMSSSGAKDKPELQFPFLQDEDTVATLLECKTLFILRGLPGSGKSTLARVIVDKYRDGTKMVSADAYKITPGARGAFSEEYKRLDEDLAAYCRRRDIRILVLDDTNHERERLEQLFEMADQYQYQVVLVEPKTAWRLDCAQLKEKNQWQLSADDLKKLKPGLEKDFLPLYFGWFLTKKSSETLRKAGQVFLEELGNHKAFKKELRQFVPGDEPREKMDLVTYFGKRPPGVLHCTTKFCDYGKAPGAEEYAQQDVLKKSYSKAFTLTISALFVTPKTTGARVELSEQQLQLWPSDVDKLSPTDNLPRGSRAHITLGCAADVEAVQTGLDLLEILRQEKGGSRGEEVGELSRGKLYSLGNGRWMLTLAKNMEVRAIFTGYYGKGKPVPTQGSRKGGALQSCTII
UniProt Q2KHT3: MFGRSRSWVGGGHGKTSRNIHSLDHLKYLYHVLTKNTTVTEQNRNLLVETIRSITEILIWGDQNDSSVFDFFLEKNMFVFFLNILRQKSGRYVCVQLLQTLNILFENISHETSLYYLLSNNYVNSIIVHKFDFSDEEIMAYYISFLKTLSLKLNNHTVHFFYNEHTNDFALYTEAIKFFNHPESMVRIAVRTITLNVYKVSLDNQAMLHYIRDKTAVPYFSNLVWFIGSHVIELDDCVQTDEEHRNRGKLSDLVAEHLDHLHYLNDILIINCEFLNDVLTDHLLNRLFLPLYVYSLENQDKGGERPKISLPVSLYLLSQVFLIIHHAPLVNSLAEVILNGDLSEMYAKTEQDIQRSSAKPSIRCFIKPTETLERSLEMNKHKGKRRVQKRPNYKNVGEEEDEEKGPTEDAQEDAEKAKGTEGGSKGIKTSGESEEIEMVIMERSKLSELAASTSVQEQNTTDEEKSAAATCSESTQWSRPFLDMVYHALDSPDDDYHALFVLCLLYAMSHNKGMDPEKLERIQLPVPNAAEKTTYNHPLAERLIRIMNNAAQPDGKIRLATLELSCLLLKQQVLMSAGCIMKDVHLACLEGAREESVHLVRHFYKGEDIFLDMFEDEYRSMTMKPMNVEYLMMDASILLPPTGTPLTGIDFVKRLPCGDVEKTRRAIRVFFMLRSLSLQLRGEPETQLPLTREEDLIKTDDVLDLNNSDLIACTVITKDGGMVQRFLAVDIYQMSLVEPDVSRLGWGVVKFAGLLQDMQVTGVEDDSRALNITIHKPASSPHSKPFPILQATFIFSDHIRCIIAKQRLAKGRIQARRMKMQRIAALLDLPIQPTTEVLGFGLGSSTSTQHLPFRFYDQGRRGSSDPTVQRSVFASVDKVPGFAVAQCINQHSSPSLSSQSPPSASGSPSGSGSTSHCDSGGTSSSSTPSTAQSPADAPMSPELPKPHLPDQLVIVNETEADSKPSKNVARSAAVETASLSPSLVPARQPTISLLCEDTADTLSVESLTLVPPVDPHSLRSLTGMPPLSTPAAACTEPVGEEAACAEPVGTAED
UniProt Q8IWV2: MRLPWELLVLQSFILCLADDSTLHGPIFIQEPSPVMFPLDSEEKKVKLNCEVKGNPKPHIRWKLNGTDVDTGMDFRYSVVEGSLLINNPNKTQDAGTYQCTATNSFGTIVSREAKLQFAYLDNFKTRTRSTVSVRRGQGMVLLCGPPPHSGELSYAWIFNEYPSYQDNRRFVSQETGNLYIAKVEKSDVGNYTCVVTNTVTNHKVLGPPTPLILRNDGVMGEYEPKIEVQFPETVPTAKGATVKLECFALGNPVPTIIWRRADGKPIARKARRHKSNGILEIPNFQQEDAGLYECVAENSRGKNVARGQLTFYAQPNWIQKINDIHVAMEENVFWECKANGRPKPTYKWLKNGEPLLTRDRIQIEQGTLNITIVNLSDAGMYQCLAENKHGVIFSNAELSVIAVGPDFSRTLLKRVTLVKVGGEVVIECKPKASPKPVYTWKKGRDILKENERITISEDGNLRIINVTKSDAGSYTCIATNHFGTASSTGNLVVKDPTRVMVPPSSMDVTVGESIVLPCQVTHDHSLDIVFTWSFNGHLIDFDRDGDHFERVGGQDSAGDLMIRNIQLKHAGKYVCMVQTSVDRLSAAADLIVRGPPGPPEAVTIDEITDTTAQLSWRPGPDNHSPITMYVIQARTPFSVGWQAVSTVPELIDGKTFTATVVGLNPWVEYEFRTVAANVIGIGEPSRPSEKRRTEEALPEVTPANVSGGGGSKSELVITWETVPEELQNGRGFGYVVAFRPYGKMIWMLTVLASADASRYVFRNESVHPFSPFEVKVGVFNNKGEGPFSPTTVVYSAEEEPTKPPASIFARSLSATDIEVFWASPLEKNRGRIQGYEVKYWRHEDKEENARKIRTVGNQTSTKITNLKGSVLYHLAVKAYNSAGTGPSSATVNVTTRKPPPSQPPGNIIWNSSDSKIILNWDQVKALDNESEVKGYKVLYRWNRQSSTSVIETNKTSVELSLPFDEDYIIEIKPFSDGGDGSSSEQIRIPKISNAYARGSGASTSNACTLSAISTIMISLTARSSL
UniProt Q14008: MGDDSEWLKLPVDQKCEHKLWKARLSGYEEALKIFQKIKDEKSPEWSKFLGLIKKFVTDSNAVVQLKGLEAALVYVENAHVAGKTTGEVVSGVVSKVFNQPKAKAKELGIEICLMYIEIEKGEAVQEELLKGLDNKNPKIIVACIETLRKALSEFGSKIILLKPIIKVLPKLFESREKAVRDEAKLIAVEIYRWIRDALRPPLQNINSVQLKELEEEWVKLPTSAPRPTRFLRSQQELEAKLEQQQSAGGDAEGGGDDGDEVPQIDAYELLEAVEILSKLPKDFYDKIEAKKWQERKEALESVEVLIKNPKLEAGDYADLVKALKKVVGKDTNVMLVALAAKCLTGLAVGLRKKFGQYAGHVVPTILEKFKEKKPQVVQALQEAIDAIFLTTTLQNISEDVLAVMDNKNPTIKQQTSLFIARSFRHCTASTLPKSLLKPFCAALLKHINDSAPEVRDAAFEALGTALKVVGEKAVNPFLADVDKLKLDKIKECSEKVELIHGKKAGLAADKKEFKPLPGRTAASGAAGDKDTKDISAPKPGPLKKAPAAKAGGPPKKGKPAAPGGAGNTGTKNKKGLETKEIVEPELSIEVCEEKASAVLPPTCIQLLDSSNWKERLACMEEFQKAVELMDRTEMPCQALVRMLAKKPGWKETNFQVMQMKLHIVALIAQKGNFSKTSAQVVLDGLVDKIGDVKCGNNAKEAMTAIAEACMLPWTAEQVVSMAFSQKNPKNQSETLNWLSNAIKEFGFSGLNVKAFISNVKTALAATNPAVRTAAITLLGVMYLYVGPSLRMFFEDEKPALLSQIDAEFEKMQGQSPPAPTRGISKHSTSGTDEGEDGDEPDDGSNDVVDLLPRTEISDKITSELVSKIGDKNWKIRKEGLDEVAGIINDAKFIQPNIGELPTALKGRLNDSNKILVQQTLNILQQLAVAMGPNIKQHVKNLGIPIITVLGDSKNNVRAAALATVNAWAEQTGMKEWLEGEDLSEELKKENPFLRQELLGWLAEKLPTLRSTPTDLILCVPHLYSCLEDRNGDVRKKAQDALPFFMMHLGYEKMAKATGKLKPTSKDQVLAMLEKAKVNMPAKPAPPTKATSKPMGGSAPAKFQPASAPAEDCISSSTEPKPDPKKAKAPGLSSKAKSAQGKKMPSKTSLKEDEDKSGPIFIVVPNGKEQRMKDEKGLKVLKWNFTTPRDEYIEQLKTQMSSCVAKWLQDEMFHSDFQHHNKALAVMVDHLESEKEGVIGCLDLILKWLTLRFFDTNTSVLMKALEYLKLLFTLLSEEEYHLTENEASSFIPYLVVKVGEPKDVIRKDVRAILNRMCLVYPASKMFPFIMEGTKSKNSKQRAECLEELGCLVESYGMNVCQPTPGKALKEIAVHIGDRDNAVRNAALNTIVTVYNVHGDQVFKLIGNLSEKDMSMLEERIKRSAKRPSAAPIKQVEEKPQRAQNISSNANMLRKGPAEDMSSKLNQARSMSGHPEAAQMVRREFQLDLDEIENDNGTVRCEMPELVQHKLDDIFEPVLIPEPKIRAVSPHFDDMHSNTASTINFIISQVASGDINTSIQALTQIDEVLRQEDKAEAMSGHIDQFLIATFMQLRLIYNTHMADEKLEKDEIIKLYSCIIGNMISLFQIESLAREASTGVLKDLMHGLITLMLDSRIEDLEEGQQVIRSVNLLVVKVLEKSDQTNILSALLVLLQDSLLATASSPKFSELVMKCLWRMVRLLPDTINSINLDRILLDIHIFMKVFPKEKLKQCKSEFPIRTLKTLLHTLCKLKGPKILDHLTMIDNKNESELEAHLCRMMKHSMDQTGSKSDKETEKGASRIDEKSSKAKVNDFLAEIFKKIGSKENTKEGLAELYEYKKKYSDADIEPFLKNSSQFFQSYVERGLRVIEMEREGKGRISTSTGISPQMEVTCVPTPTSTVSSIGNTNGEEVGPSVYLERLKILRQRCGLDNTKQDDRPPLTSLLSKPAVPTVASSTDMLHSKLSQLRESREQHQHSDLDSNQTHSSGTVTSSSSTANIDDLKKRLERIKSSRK

The targets below were run with CN(CCOC1=CC=C(C=C1)C[C@H]2C(=O)NC(=O)S2)C3=CC=CC=N3 (racemic) [rosiglitazone] (assay: log2 fold change, soluble protein after heating vs DMSO (PISA); higher = thermal stabilisation; K562 cells, 10 uM, 30 min; active = over 0.2 and 3.5 SD of the protein, either way, in both replicates (recomputed)).
In short: (§1)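 Soluble protein was defined as the supernatant after 21,000xg for 90 min. It came from K562 cells at 2×10^6 cells/mL given 10 μM compound for 30 min, heated in aliquots for 3 min across 48°C-58°C, pooled, and extracted in PBS with 0.5% NP-40 at 4°C, and was quantified by TMTpro 16plex LC-MS/MS with equalised channel sums. Thermal stability against control samples, from duplicates, is reported as log2 fold change.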

log2 fold change, inactive:
CMTM6 (UniProt Q9NX76) -0.01
CISD1 (UniProt Q9NZ45) -0.008
CLPB isoform 2 (UniProt Q9H078) 0.057
CNOT9 isoform 2 (UniProt Q92600) 0.014

The targets below were run with CN1C2=C(C3=C1C(=O)N(N=C3)CC4=CC(=CC=C4)N)SC(=C2)S(=O)C in the same assay as above.
In short: as §1

log2 fold change, inactive:
CISD3 (UniProt P0C7P0) -0.069
CLTA isoform 2 (UniProt P09496) -0.036
CMSS1 (UniProt Q9BQ75) 0.032
CNOT8 (UniProt Q9UFF9) -0.003
COA3 (UniProt Q9Y2R0) -0.02
CKB (UniProt P12277) -0.111
CNP (UniProt P09543) -0.041
CNOT6L (UniProt Q96LI5) 0.061
COL15A1 (UniProt P39059) 0.243
CLCN7 (UniProt P51798) 0.009
CLEC16A (UniProt Q2KHT3) 0.032
CLTB (UniProt P09497) -0.064
COA7 (UniProt Q96BR5) -0.029
CLASP1 (UniProt Q7Z460) 0.091
CNTN4 (UniProt Q8IWV2) -0.077
CKAP5 (UniProt Q14008) 0.123
CNOT10 isoform 6 (UniProt Q9H9A5) 0.026
CLIC1 (UniProt O00299) -0.058
CLNS1A (UniProt P54105) -0.042

Two neighbouring entries already listed, for reference:
log2 fold change, inactive:
CNOT10 isoform 6 (UniProt Q9H9A5) 0.026
CLIC1 (UniProt O00299) -0.058
